Assay results published in PubChem BioAssay AID1439 (NMMLSC, 2008).
“And” between values parts separate entries of the source, which are not always exact repeats. Equal values may be shown once. Out of some 220,000 compounds screened, about 770 (0.35%) were called active. Inconclusive means that the source gave no clear call. Such entries were picked first, then a sample of the others. Cut-off read from the data, not from the text of the source: active = binding response below about 49% or above about 150%; inconclusive = no clear call, values can overlap the other calls; inactive = in between.

Sequences of proteins named here, by UniProt entry; tags and fusion partners are left off.
UniProt P09471, whole entry, looked up: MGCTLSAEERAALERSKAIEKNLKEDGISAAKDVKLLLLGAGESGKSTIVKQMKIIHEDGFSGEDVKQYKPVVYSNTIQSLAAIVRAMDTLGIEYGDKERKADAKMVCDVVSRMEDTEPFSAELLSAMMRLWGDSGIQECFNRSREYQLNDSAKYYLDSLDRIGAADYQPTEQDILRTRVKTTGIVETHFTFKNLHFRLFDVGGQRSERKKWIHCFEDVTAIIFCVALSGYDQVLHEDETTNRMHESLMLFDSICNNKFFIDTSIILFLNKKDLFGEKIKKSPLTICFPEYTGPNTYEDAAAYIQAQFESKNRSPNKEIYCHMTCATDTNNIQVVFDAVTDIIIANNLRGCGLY

target: Guanine nucleotide-binding protein G(o) subunit alpha (Homo sapiens) (UniProt P09471); assay: RGS7-Galphao binding modulators, primary screen, biochemical, multiplexed bead flow cytometry (AID 1439); conditions: at 10 µM, actives lie on both sides;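 note: fluorescent Galphao held in activated GDP-AlF4 state binding bead-coupled RGS7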

Row | SMILES | binding response (% of control)
1 | O=C(COC(=O)C12CC3CC(CC(Br)(C3)C1)C2)Nc1cccnc1Cl | inactive: 105%
2 | Oc1ccc(CCc2n[nH]c(=S)n2-c2ccc(F)cc2)cc1 | inconclusive: 97.3%
3 | CCc1ccc(OCCCC(=O)Nc2cccc(C(=O)O)c2)cc1 | inconclusive: 128%
4 | CC(=O)Nc1ccc(S(=O)(=O)NCC2CCC(C(=O)NC(C)c3ccc4c(c3)OCCO4)CC2)cc1 (configuration not stated) | inactive: 91.1%
5 | CCN(CC)S(=O)(=O)c1ccc(N=Nc2c(N)[nH]c(=O)[nH]c2=O)cc1 | inconclusive: 137%
6 | COC(=O)C1(Cc2ccc(O)cc2)OC(=O)C(O)=C1c1ccc(O)cc1 (configuration not stated) | inconclusive: 106%
7 | Fc1ccccc1N1CCN(c2ncnc3nc[nH]c23)CC1 | inconclusive: 109%
8 | CCCCN(CC)Cc1c(O)ccc2c3c(c(=O)oc12)CCC3 | inconclusive: 112%
9 | N=c1n(CCN2CCCCC2)c2ccccc2n1CC(O)c1ccco1 (configuration not stated) | inconclusive: 102%
10 | Cc1cc(SCC2=NNC(=O)C2)c(Cl)cc1Cl | inconclusive: 71.4%
11 | O=C(COc1cccnc1[N+](=O)[O-])NCc1ccc2c(c1)OCO2 | inconclusive: 119%
12 | O=C1CN(C(=O)COC(=O)c2cc(S(=O)(=O)N3CCOCC3)ccc2Cl)c2ccccc2N1 | inconclusive: 101%
13 | CC(=O)Nc1ccc(S(=O)(=O)NC2(C(F)(F)F)C(=O)Nc3c2c(=O)[nH]c(=O)n3Cc2ccco2)cc1 (configuration not stated) | inconclusive: 64.4%
14 | COc1ccc(NC(=O)c2sc3nc(-c4cccnc4)ccc3c2N)cc1 | inconclusive: -32.9%
15 | COc1ccc(/C=C/C(=O)N2CCN(c3ccccc3)CC2)cc1S(=O)(=O)N1CCOCC1 | inconclusive: 73.8%
16 | Cc1cc(Sc2nnc(/N=C/N(C)C)s2)c2ccccc2n1 | inconclusive: 141%
17 | O=C(CSc1nnc(COc2cccc3cccnc23)o1)N1CCN(C(=O)c2ccco2)CC1 | inactive: 112%
18 | Cc1nonc1OCCN1CCN(c2ccc([N+](=O)[O-])cc2)CC1 | inconclusive: 31.8%
19 | O=C1CC(/C=C/c2cccnc2)=Nc2ccccc2N1 | inconclusive: 88.3%

Look-ups from the entries so far.
`Cc1cc(Sc2nnc(/N=C/N(C)C)s2)c2ccccc2n1` | binding response (% of control): inconclusive: 141%
`O=C(CSc1nnc(COc2cccc3cccnc23)o1)N1CCN(C(=O)c2ccco2)CC1` | binding response (% of control): inactive: 112%
`COc1ccc(NC(=O)c2sc3nc(-c4cccnc4)ccc3c2N)cc1` | binding response (% of control): inconclusive: -32.9%
`CCN(CC)S(=O)(=O)c1ccc(N=Nc2c(N)[nH]c(=O)[nH]c2=O)cc1` | binding response (% of control): inconclusive: 137%
`Cc1cc(SCC2=NNC(=O)C2)c(Cl)cc1Cl` | binding response (% of control): inconclusive: 71.4%

Further compounds.

Row | SMILES | binding response (% of control)
20 | Cc1c(C(=O)O)sc2nc(CSc3ncc(C(F)(F)F)cc3Cl)[nH]c(=O)c12 | inconclusive: -25.4%
21 | Nc1ccccc1CNc1nc(NCCO)nc2c1ncn2CCN1CCOCC1 | inconclusive: 113%
22 | CCNC(=S)N=Nc1c(O)[nH]c2ccc([N+](=O)[O-])cc12 | inconclusive: 96.7%
23 | CCC(=O)NC(Nc1c(C)n(C)n(-c2ccccc2)c1=O)C(Cl)(Cl)Cl (configuration not stated) | inactive: 99.2%
24 | COc1cccc(/C=N/NC(=O)CNC(=O)COc2cccc(C)c2)c1O | inconclusive: 58.8%
25 | CC1=CC(C)(C)N=C(NC#N)N1 | active: 44.3%
26 | Clc1ccccc1-c1csc(Nc2cccnc2)n1 | inconclusive: 124%
27 | CC(C)(C)NC(=S)NNC(=O)c1ccc2ncccc2c1 | inconclusive: 133%
28 | CCCc1cc(C(=O)OC)c(NC(=O)c2cc(C)on2)s1 | inactive: 98.6%
29 | CCCn1c(N/N=C(C)\C=C\c2ccccc2)nc2c1c(=O)[nH]c(=O)n2C | inconclusive: 89.8%
30 | Cc1nn(-c2ccccc2)c(C)c1-c1nnc(-c2c(C)nn(-c3ccccc3)c2C)o1 | inconclusive: 57.9%
31 | Cc1ccc([N+](=O)[O-])cc1NC(=O)C(Sc1ccccc1)c1ccccc1 (configuration not stated) | inactive: 103%
32 | CC(C)[C@H](NC(N)=O)C(=O)Nc1cccc(S(=O)(=O)N2CCOCC2)c1 | inactive: 93.3%
33 | COC(=O)CC/C(O)=C1\C(=O)CC(C)(C)CC1=NCc1nc2ccccc2[nH]1 | inactive: 96.2%
34 | O=C(/C=C/c1cc([N+](=O)[O-])ccc1OC(F)F)Nc1cccc([N+](=O)[O-])c1 | inconclusive: 117%
35 | COc1cccc(CC(NC(C)=O)C(=O)NC2CCN(C(=O)C3CC3)CC2)c1OC (configuration not stated) | inactive: 98.5%
36 | O=S(=O)(NC(=NCc1ccccc1)c1ccc(F)cc1)c1ccc(Cl)cc1 | inconclusive: 87.2%
37 | O=C(CSc1n[nH]c(=O)n1-c1ccccc1)Nc1ccccc1 | inconclusive: 104%
38 | O=C(/C=C/c1ccc(O)c(O)c1)c1ccccc1O | inconclusive: 106%

Row | SMILES | binding response (% of control)
39 | CCOC(=O)c1sc(NC(=O)Cc2ccc(C)cc2)nc1C | inconclusive: 98.4%
40 | OCCC1CN(Cc2ccc3c(c2)CCO3)CCN1C1CCCC1 (configuration not stated) | inconclusive: 98.4%
41 | O=C(O)CSc1nc2ccccc2s1 | inconclusive: 137% and inconclusive: 92.7%
42 | CCCC(=O)C1=C(O)C(C(=O)OC)C(C)(C)CC1=Nc1ccc(Br)cc1 (configuration not stated) | inconclusive: 82.5%
43 | CCn1c(=O)c([N+](=O)[O-])c(NC2CCS(=O)(=O)C2)c2ccccc21 (configuration not stated) | inconclusive: 110%
44 | COc1ccc(C(C)(C)C)cc1NC(=S)NCCN1CCOCC1 | inactive: 108%
45 | COc1cc(Cl)c(C)cc1NC(=O)c1ccc(NS(=O)(=O)c2ccc(F)c(F)c2)cc1 | inconclusive: 102%
46 | Cc1ccccc1NC(=O)C(NC1CCCCC1)C(C)C (configuration not stated) | inactive: 97.2%
47 | Fc1cccc(Cl)c1CSc1ccc2nnc(-c3ccccn3)n2n1 | inconclusive: 91.8%
48 | Cc1cc(Oc2ccc(N)cn2)cc(C)c1Cl | inconclusive: 24.6%
49 | CCOC(=O)c1c2c3c(c(Cl)ccc3[nH]c1=O)C(=O)c1ccccc1-2 | inconclusive: 104%
50 | Cc1cc(NC(=O)CSc2nc(C(C)C)nc3sc(C)c(C)c23)no1 | inactive: 101%
51 | O=C(CSc1nnc(-c2cnccn2)n1Cc1ccco1)c1ccc2ccccc2c1 | active: 25.3%
52 | O=C(NC(=S)NN1CCCCC1c1cccnc1)c1ccc(Cl)cc1Cl (configuration not stated) | inconclusive: 107%
53 | COc1ccc(C2=NCCNC(C(F)(F)F)=C2)cc1 | inconclusive: 98.5%
54 | Cc1sc2nc(CN3CCCC3)nc(NCc3ccncc3)c2c1C | inconclusive: 115%
55 | Cc1nn2c(NCc3ccccn3)cc(C(C)(C)C)nc2c1-c1ccccc1 | inconclusive: 83.5%
56 | Oc1c(Br)cc(Br)cc1C=Nc1ccc2[nH]ncc2c1 | inconclusive: 98.3%
57 | Cc1ccc(CNS(=O)(=O)c2ccc(C(F)(F)F)cc2)n1C | inconclusive: 98%
